Measured values taken from PMC4600896.
Results are given in words; binding and its absence hold for the method and conditions named. In cells and extracts the contact can be indirect. Some binding calls cover weakened binding; strength is not graded here.

By UniProt entry, the sequences of proteins in these tests, tags left out. Where a name states a change or a piece, a line headed by the entry shows the natural chain unless it says otherwise. Chains listed by the source or under a name are the forms on record and can include a tag or linker.
GFP-xDnmt1 (Q6GQH0, form named): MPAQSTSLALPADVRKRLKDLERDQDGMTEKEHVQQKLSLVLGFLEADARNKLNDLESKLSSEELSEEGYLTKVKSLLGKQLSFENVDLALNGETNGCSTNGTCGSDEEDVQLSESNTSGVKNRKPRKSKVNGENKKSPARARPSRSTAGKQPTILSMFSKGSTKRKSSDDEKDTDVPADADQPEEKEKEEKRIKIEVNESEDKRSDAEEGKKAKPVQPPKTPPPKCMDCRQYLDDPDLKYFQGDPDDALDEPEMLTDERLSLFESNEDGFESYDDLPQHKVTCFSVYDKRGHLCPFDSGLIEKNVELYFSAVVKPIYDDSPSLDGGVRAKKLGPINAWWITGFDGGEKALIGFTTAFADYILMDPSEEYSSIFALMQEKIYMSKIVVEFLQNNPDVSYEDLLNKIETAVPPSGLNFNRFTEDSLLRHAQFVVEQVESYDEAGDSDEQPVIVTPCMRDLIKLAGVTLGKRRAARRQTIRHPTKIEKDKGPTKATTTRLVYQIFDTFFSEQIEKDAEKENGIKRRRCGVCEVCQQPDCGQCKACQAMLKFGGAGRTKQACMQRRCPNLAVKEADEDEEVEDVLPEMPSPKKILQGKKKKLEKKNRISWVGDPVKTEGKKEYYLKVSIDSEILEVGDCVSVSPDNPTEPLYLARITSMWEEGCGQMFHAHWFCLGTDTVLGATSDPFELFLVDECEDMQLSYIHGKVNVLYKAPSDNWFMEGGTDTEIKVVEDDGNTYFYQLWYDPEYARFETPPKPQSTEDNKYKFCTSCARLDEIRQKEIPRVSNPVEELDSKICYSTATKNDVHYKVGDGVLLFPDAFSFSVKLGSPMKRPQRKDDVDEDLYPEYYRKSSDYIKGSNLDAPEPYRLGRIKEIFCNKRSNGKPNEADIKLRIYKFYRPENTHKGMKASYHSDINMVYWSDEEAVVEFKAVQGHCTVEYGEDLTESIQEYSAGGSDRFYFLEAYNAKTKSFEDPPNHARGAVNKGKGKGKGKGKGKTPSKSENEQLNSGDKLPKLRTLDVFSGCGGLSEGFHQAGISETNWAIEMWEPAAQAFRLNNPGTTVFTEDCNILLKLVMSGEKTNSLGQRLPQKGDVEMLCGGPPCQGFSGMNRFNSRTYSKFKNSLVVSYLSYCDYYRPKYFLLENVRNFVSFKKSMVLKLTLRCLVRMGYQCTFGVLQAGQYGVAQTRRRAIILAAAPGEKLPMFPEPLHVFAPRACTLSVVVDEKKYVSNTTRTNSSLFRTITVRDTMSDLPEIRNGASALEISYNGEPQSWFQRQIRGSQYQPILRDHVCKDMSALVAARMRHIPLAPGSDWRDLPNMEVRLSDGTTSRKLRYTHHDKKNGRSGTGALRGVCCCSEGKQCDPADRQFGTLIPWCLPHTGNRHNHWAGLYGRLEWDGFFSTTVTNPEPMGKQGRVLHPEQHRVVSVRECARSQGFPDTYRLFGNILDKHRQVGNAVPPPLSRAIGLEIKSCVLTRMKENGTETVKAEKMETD

B1: T7-xLsh (protein, UniProt Q4V835 1-838)
chain: MPVGQSSAEQVSPAPKMEPSDDDPIITESMIKEEEKLEKAAEVEERKMIEKARMSWERDSNEMRYKRLQHLLEKSNIYSKFLLTKMEQQQLEEMRRKEKLEKKQKRVQPVKMQNQSSANEDQTGGRKKRQREENYNISDVMSKEEILSVSKKSKLEHEDENYSNKLTSEEIEKNGDSNSTIKDRLSQTVRNNAKQLLDPERKVNGQPVPFQQPKYFTGGVMRWYQIEGMEWLRMLWENGINGILADEMGLGKTVQCIATISMMVERGVPGPFFVCGPLSTLPNWVSEFKRFSPEIPVLLYHGNAQDRRRLARKINKREGSLQLFPVVITSFEIAMRDRPVLQHNAWKYMILDEGHRIKNMNCRLIQELKLFRSDNKLLLTGTPLQNNLSELWSLLNFLLPDVFDDLRSFESWFDISGISQNAADIVANEREQNILHMLHQILTPFLLRRLKCDVTLEVPPKREVIVYAPLTKKQETFYTAIVNKTIEKMLGQEKDCEEILSSPAVGRAKRRSRRAVNYSELDKDTPNDLEKLINQLIKQQEVEKERPSTKVHLPSDSQVNLKMRNIMMLLRKCCNHPYLIEYPLDPLTQNFKIDEELVNSSGKFLLLDRLLPEMKKRGHKVLIFSQMTMMLDILMDYCYYKKFNFCRLDGSMSYTDREENMRSFNTDPDVFIFLVSTRAGGLGINLTAADTVIIYDSDWNPQADLQAQDRCHRIGQTRPVVVYRLVTANTIDQKIVERAAAKRKLEKLVIHKNKFKGGQTGINQSKSCLDPQELLELLQSRDYEREVKGSSEKVISDKDLEMLLDRSDLVAQMKNNVLLQNAKQGVFKVVDSTEVTVS
B2: endogenous human Lsh, Q9NRZ9 1-838 (protein)
chain: MPAERPAGSGGSEAPAMVEQLDTAVITPAMLEEEEQLEAAGLERERKMLEKARMSWDRESTEIRYRRLQHLLEKSNIYSKFLLTKMEQQQLEEQKKKEKLERKKESLKVKKGKNSIDASEEKPVMRKKRGREDESYNISEVMSKEEILSVAKKNKKENEDENSSSTNLCVEDLQKNKDSNSIIKDRLSETVRQNTKFFFDPVRKCNGQPVPFQQPKHFTGGVMRWYQVEGMEWLRMLWENGINGILADEMGLGKTVQCIATIALMIQRGVPGPFLVCGPLSTLPNWMAEFKRFTPDIPTMLYHGTQEERQKLVRNIYKRKGTLQIHPVVITSFEIAMRDRNALQHCYWKYLIVDEGHRIKNMKCRLIRELKRFNADNKLLLTGTPLQNNLSELWSLLNFLLPDVFDDLKSFESWFDITSLSETAEDIIAKEREQNVLHMLHQILTPFLLRRLKSDVALEVPPKREVVVYAPLSKKQEIFYTAIVNRTIANMFGSSEKETIELSPTGRPKRRTRKSINYSKIDDFPNELEKLISQIQPEVDRERAVVEVNIPVESEVNLKLQNIMMLLRKCCNHPYLIEYPIDPVTQEFKIDEELVTNSGKFLILDRMLPELKKRGHKVLLFSQMTSMLDILMDYCHLRDFNFSRLDGSMSYSEREKNMHSFNTDPEVFIFLVSTRAGGLGINLTAADTVIIYDSDWNPQSDLQAQDRCHRIGQTKPVVVYRLVTANTIDQKIVERAAAKRKLEKLIIHKNHFKGGQSGLNLSKNFLDPKELMELLKSRDYEREIKGSREKVISDKDLELLLDRSDLIDQMNASGPIKEKMGIFKILENSEDSSPECLF

Columns and labels:
[1] = target: GFP-xDnmt1 (Xenopus laevis) (UniProt Q6GQH0); test: co-IP; GFP-xDnmt1 and T7-xLsh coexpressed in 293T cells, nuclear extracts, immunoprecipitated under high salt conditions (250 mM NaCl), reciprocal
[2] = target: endogenous human Dnmt1 (human (endogenous in SW620)), P26358; test: co-IP; endogenous proteins of SW620 cells; hDnmt1 immunoprecipitates blotted with a human Lsh antibody; conditions: remark: other sources report otherwise

Binder | binding [1] | binding [2]
B1 | binds | 
B2 |  | binds
